Among the data in publication doi:10.1101/2020.10.08.332312 are binding values, retold here.

Protein sequences, listed by entry. Tags and fused reporters are not part of them. Lines headed by an entry give the natural chain unless they say otherwise; changes in a name come on top.
UniProt Q03337, whole entry: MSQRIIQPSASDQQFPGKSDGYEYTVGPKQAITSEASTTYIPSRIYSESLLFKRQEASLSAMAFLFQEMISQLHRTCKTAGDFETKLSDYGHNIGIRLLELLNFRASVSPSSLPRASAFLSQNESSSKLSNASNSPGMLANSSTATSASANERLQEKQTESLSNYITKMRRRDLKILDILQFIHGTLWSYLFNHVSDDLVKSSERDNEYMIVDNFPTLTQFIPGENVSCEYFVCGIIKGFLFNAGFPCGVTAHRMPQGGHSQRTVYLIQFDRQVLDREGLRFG

No constants are given. Whether binding was seen depends on the method and setting. For part of these data: In cells and extracts the contact can be indirect. Tags and fused reporters may be left off the sequences shown. Some entries that bind do so weakly or less than the wild type.

In test [1] the target is T1, Trs20 (subunit of the recombinant TRAPPIII complex) (S. cerevisiae) (UniProt P38334).
T1 sequence: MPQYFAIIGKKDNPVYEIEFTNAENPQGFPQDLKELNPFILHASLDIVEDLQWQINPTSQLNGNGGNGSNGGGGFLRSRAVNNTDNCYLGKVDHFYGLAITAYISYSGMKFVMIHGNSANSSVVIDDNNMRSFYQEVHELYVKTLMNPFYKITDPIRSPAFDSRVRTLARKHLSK
In words: cross-linking.

For test [2], the target named is Trs31 (subunit of the recombinant TRAPPIII complex) (S. cerevisiae) (UniProt Q03337). In words: cross-linking.
The target of test [3] is T1, Trs20 (subunit of the recombinant TRAPPIII complex) (S. cerevisiae). In words: cryo-EM structure.
Test [4] deals with Trs31 (subunit of the recombinant TRAPPIII complex) (S. cerevisiae) (UniProt Q03337). In words: cryo-EM structure.
The target in test [5] is T2, Trs85-mNeonGreen R620E (S. cerevisiae) (UniProt P46944).
T2 sequence: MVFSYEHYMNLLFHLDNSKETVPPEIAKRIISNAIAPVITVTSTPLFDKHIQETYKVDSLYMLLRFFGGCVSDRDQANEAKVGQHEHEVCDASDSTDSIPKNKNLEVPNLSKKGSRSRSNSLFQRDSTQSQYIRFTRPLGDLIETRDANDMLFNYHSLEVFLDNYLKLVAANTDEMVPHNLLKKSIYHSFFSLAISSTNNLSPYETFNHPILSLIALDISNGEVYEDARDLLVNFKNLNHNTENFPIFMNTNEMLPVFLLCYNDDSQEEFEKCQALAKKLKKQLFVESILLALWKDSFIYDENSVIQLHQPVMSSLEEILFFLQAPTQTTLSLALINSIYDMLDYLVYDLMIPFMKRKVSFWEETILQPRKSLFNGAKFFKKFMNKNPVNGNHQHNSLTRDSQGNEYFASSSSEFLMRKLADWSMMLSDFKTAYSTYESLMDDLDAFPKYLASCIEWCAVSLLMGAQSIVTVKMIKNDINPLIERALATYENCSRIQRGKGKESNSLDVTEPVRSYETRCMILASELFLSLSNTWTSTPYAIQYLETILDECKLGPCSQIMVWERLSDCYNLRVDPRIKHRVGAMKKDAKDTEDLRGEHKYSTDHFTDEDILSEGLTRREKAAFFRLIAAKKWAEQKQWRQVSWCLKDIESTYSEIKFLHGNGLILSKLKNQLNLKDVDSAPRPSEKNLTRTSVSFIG
In words: co-IP.

The target of test [6] is T3, Trs85-mNeonGreen quadruple alanine mutant (Arg618, Arg619, Arg620, Lys621 to alanine) (S. cerevisiae) (UniProt P46944).
T3 sequence: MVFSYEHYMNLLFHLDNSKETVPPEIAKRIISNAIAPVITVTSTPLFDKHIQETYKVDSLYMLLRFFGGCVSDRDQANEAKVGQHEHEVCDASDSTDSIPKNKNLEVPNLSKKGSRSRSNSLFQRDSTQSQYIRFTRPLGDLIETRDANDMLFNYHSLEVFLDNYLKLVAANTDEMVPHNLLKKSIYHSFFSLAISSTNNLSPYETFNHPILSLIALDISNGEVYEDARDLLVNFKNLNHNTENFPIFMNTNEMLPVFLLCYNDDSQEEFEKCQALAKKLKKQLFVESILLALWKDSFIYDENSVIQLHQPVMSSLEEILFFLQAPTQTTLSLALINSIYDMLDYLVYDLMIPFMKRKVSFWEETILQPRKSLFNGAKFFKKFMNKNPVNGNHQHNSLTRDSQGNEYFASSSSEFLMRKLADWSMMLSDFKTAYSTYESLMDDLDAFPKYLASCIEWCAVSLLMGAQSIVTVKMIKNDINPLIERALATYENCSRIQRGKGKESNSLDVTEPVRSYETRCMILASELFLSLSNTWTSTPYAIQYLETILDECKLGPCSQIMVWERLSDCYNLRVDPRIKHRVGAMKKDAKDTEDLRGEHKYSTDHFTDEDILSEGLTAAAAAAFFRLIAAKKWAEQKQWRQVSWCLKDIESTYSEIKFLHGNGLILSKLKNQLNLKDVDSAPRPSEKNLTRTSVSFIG
In words: co-IP.

B1: Trs85 (His6-Trs85, subunit of the recombinant TRAPPIII complex) (protein, UniProt P46944 1-698)
chain: MVFSYEHYMNLLFHLDNSKETVPPEIAKRIISNAIAPVITVTSTPLFDKHIQETYKVDSLYMLLRFFGGCVSDRDQANEAKVGQHEHEVCDASDSTDSIPKNKNLEVPNLSKKGSRSRSNSLFQRDSTQSQYIRFTRPLGDLIETRDANDMLFNYHSLEVFLDNYLKLVAANTDEMVPHNLLKKSIYHSFFSLAISSTNNLSPYETFNHPILSLIALDISNGEVYEDARDLLVNFKNLNHNTENFPIFMNTNEMLPVFLLCYNDDSQEEFEKCQALAKKLKKQLFVESILLALWKDSFIYDENSVIQLHQPVMSSLEEILFFLQAPTQTTLSLALINSIYDMLDYLVYDLMIPFMKRKVSFWEETILQPRKSLFNGAKFFKKFMNKNPVNGNHQHNSLTRDSQGNEYFASSSSEFLMRKLADWSMMLSDFKTAYSTYESLMDDLDAFPKYLASCIEWCAVSLLMGAQSIVTVKMIKNDINPLIERALATYENCSRIQRGKGKESNSLDVTEPVRSYETRCMILASELFLSLSNTWTSTPYAIQYLETILDECKLGPCSQIMVWERLSDCYNLRVDPRIKHRVGAMKKDAKDTEDLRGEHKYSTDHFTDEDILSEGLTRRRKAAFFRLIAAKKWAEQKQWRQVSWCLKDIESTYSEIKFLHGNGLILSKLKNQLNLKDVDSAPRPSEKNLTRTSVSFIG
As to B1, the binding result in test [1], in test [2], in test [3] and in test [4] was “binds” each time.

B2: Trs23-6xHis-3xFLAG (expressed in yeast) (protein, UniProt Q03784 1-219)
chain: MAIETILVINKSGGLIYQRNFTNDEQKLNSNEYLILASTLHGVFAIASQLTPKALQLTQQTNIENTIPYIPYVGMSSNRSDTRNGGGNNNKHTNNEKLGSFKGDDFFKEPFTNWNKSGLRQLCTDQFTMFIYQTLTGLKFVAISSSVMPQRQPTIATTDKPDRPKSTSNLAIQIADNFLRKVYCLYSDYVMKDPSYSMEMPIRSNLFDEKVKKMVENLQ
With B2, the binding entry in test [5] and in test [6] was “no binding” each time.
